We go through one substance from doi:10.1101/2023.05.23.542025.

Protein sequences, listed by entry. Tags and fused reporters are not part of them.
UniProt P45481: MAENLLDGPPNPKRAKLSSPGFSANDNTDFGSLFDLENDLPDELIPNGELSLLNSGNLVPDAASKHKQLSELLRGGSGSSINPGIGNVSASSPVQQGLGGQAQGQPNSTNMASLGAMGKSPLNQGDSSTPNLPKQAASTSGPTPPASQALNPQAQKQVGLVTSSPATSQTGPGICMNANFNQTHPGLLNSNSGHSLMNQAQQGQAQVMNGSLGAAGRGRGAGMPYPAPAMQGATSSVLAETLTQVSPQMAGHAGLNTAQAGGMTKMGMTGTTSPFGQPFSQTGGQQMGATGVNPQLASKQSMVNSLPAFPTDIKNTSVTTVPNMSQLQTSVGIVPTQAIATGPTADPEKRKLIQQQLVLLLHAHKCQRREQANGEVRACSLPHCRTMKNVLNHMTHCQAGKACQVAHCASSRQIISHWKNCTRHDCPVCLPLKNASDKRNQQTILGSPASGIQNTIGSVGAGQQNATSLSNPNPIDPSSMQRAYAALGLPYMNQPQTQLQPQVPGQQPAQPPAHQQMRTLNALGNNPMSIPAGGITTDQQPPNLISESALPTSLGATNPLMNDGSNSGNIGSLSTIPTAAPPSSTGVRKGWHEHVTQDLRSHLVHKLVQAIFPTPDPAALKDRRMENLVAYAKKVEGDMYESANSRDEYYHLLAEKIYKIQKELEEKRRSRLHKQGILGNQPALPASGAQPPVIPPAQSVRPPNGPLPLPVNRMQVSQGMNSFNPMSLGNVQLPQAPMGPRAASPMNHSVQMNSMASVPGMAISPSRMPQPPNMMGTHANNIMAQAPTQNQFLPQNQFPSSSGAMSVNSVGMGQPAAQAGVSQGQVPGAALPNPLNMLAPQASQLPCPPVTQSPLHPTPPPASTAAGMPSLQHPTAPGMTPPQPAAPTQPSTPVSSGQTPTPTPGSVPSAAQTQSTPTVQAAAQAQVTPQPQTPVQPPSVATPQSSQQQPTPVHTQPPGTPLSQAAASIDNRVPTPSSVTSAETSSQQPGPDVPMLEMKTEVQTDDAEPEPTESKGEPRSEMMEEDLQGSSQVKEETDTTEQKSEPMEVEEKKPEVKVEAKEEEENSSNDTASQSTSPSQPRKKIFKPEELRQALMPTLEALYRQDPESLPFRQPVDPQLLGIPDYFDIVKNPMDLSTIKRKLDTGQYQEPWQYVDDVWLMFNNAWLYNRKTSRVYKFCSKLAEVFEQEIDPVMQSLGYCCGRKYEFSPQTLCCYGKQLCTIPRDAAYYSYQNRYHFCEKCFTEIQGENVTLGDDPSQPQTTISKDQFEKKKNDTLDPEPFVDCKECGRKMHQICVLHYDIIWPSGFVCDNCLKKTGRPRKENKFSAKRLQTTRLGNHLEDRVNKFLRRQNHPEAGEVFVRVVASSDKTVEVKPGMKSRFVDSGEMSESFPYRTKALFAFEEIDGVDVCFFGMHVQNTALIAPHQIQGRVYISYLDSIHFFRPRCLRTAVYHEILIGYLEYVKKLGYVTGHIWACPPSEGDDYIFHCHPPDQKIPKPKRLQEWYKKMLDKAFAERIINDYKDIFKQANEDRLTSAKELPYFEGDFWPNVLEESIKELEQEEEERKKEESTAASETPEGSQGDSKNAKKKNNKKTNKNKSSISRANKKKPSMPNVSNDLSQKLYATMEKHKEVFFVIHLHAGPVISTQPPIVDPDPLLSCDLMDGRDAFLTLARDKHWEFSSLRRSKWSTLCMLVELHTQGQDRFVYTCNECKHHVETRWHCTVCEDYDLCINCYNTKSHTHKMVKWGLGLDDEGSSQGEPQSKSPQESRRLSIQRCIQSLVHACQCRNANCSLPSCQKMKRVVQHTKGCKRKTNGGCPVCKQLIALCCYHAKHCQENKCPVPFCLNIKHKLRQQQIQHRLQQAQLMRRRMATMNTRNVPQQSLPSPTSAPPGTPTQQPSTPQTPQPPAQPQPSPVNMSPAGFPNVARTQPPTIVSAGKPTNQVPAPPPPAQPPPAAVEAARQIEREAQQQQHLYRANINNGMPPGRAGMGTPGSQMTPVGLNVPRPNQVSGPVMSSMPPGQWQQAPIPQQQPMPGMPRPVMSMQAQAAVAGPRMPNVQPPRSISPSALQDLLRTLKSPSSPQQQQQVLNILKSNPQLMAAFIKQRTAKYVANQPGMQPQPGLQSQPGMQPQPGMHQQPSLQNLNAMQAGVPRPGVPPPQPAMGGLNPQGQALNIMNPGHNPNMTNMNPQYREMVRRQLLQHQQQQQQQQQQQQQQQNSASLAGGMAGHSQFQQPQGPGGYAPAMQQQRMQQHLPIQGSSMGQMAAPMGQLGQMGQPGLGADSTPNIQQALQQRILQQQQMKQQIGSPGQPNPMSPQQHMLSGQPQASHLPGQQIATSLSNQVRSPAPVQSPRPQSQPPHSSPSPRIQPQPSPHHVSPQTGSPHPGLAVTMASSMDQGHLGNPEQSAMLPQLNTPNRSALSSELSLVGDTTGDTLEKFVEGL

The target in this test is T1, Flag-tagged STAT6 (UniProt P52633).
T1 sequence: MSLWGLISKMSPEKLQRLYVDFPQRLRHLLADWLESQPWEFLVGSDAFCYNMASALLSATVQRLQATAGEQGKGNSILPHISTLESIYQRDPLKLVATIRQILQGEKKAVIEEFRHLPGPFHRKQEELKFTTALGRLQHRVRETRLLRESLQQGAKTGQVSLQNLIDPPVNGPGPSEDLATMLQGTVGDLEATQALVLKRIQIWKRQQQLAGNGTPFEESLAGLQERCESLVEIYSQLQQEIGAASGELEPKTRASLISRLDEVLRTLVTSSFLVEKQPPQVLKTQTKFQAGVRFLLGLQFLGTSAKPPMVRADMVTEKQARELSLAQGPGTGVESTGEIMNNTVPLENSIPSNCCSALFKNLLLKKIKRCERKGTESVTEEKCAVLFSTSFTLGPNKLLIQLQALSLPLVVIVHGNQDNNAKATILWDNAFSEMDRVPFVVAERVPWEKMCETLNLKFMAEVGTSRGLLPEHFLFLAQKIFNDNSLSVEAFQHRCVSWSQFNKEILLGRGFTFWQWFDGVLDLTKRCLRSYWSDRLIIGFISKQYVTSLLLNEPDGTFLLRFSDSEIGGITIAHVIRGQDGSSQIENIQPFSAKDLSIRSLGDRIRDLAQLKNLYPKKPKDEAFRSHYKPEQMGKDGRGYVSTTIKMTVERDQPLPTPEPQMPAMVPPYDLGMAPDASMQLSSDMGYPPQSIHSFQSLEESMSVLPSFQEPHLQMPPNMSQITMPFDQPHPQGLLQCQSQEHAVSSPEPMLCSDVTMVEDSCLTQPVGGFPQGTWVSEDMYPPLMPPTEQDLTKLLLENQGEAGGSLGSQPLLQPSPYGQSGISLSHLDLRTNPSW
The experiment in a line: affinity purification with mass spectrometry.

Results are given in words; binding and its absence hold for the method and conditions named. Binding seen in cells or lysates may run through a third protein. Here binding means that the protein was enriched with, or labelled near, the bait; the list need not be complete. Where a sequence is shown, tags or fusion partners need not be part of it.

For the substance “cAMP-response element binding protein (CBP) (from UniProt P45481 1-2441)”, the binding result was “binds”.
